{"source": "PubChem BioAssay AID1347075", "about": "(National Center for Advancing Translational Sciences (NCATS), 2019)", "note": "Hit rate of the full screen: of about 400,000 compounds, about 5,500 (1.4%) were called active. The inconclusive results got no clear call from the source; some entries with a clear call stand among them for comparison. The call rests on the fitted dose curve; in most records, active means well fitted cell-killing curve with a large enough effect; inconclusive means small, poorly fitted or top-dose-only effect, or effect the other way; inactive means flat fitted curve, though single readings scatter. Potencies of inconclusive entries are doubtful fits and often do not repeat. On the % scale 0 is the no-effect control and ±100 the full control effect; potency means the concentration at half of the fitted maximal effect."}
{"assay": "qHTS assay for MDR1-selective chemotherapeutics: Primary screen using the parental adenocarcinoma cell KB-3-1; further: nearly all actives have a fitted effect of over 60% in size", "conditions": "KB-3-1 viability, CellTiter-Glo ATP luminescence, 72 h; activity change, negative = cytotoxic: at 46.1 µM (top of the series)", "how_it_was_run": "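72 h, 37 °C compound treatment of KB-3-1 parental cells; CellTiter-Glo added, 10 min, luminescence read. Data corrected against DMSO-only plates and normalized before curve fitting.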"}
{"smiles": "CN(Cc1ccon1)C(=O)c1ccc2nc(Cc3cccc(Cl)c3)oc2c1", "activity change, negative = cytotoxic": "inconclusive: -7.39%"}
{"smiles": "O=c1cc(CCc2ccccc2)oc2cccc(O)c12", "activity change, negative = cytotoxic": "inactive: 0%"}
{"smiles": "Oc1ccc(Cl)cc1C1C=C(c2ccc3c(c2)OCO3)NC(c2ccc(C(F)(F)F)cc2)N1", "note": "(stereo not drawn)", "Potency": "inconclusive: 29.1 µM [cytotoxic, single point]"}
{"smiles": "COc1cccc(N2CCN(C(=O)c3cc(C)oc3C)CC2)c1", "Potency": "active: 23.1 µM"}
{"smiles": "CCCCN1C(=O)C(=O)N(CC(=O)Nc2ccccc2C(=O)OCC)C1=O", "Potency": "inconclusive: 23.1 µM [cytotoxic, single point]"}
{"smiles": "COc1ccc(N2CCN(C(=O)c3ccc4c(c3)CC(c3ccccc3)OC4=O)CC2)cc1", "note": "(stereo not drawn)", "Potency": "inconclusive: 29.1 µM [cytotoxic, single point]"}
{"smiles": "CC1CCCCC1NC(=O)CN1CCN(S(=O)(=O)c2ccc(Br)s2)CC1", "note": "(stereo not drawn)", "Potency": "inconclusive: 8.2 µM [cytotoxic, partial curve, poor fit]"}
{"smiles": "Cc1ccccc1-c1nc(CS(=O)(=O)CC(=O)NCc2cccc(Cl)c2)c(C)o1", "activity change, negative = cytotoxic": "inactive: 24.6%"}
{"smiles": "CCNC(=S)N(CCc1c(C)[nH]c2ccc(C)cc12)Cc1cccs1", "activity change, negative = cytotoxic": "inactive: 0.876%"}
{"smiles": "C/C(=N\\NC(=O)C1CCCN(S(=O)(=O)c2ccccc2)C1)c1ccccn1", "note": "(stereo not drawn)", "Potency": "inconclusive: 2.91 µM [cytotoxic, partial curve, poor fit]"}
{"smiles": "Cc1ccc(CN(C)C(=O)c2ccccc2NC(=O)c2ccccc2)o1", "Potency": "inconclusive: 16.4 µM [cytotoxic, single point]"}
{"smiles": "CC(C)Cn1c2c(c(O)c(C(=O)Nn3c(Cc4ccccc4)nc4ccccc4c3=O)c1=O)CCCC2", "Potency": "inconclusive: 29.1 µM [cytotoxic, single point]"}
{"smiles": "CCOC(=O)C1=CCN(S(=O)(=O)c2ccccc2Br)C1c1cccc(Cl)c1", "note": "(stereo not drawn)", "activity change, negative = cytotoxic": "inactive: -1.55%"}
{"smiles": "COc1ccc(-c2nc(C(=O)NCC3CCCO3)cc3c2[nH]c2ccccc23)cc1", "note": "(stereo not drawn)", "Potency": "inconclusive: 29.1 µM [cytotoxic, single point]"}
{"smiles": "COc1ccc(NS(=O)(=O)c2cc(NC(=O)c3cnccn3)ccc2OC)cc1Br", "Potency": "inconclusive: 25.9 µM [cytotoxic, single point]"}
{"smiles": "CC(=O)C(C(C)=O)c1c(Cl)c(O)c(O)c2c(C(=O)c3ccccc3)coc12", "Potency": "active: 13 µM"}
{"smiles": "COc1ccc(NC(=O)C2Cc3c(-c4cccc(C(N)=O)c4)ccnc3O2)cc1", "note": "(stereo not drawn)", "Potency": "inconclusive: 20.6 µM [cytotoxic, single point]"}
{"smiles": "NNC(=O)c1cccc(COc2ccc3c(c2)CCC3)c1", "activity change, negative = cytotoxic": "inactive: -9.56%"}
{"smiles": "CCCCN(CC)CCNc1c(NC2CCN(C(=O)OCC)CC2)c(=O)c1=O", "Potency": "inconclusive: 23.1 µM [rising, single point]"}
{"smiles": "O=C(NC(=S)Nc1ccc(N2CCOCC2)c(Cl)c1)C(c1ccccc1)c1ccccc1", "Potency": "inconclusive: 20.6 µM [cytotoxic, single point]"}
{"smiles": "CC(C)Oc1ccc(CNC(=O)Cn2ccc3cc(S(=O)(=O)N4CCCC4)ccc32)cc1", "activity change, negative = cytotoxic": "inactive: 2.62%"}
{"smiles": "CC(=O)Oc1c(Cl)cc(N(C(C)=O)S(=O)(=O)c2ccccc2)c2ccccc12", "Potency": "inconclusive: 29.1 µM [cytotoxic, single point]"}
{"smiles": "CCCCc1c(-c2ccc(F)cc2)ncn1CCc1ccccc1OC", "Potency": "inconclusive: 18.4 µM [cytotoxic, single point]"}
{"smiles": "O=C(C[n+]1cccc2cc(Cl)ccc21)c1ccc(I)cc1", "Potency": "inconclusive: 29.1 µM [cytotoxic, single point]"}
{"smiles": "Cn1nc(CC(=O)NC2CCCCC2)c2ccccc2c1=O", "Potency": "inconclusive: 29.1 µM [cytotoxic, single point]"}
{"smiles": "COc1cc(/C=N/NC(=S)NCc2ccco2)cc(OC)c1OC", "activity change, negative = cytotoxic": "inactive: -4.11%"}
{"smiles": "CCCCn1nnc(NC(=O)C(c2ccccc2)c2ccccc2)n1", "activity change, negative = cytotoxic": "inactive: -5.42%"}
{"smiles": "O=C(NC(=S)Nc1nc(-c2cccc3ccccc23)cs1)c1cc2ccccc2o1", "Potency": "inconclusive: 29.1 µM [cytotoxic, single point]"}
{"smiles": "COc1ccc([N+](=O)[O-])cc1NC(=S)NC(NC(=O)Cc1ccc(OC)c(OC)c1)C(Cl)(Cl)Cl", "note": "(stereo not drawn)", "activity change, negative = cytotoxic": "inactive: -6.49%"}
{"smiles": "CCOC(=O)C(CC)/C(C)=N\\NC(=O)c1ccccc1O", "note": "(stereo not drawn)", "Potency": "inconclusive: 20.6 µM [cytotoxic, partial curve, poor fit]"}
{"smiles": "COc1ccc(C2C(C(=O)/C=C/c3ccco3)=C(O)C(=O)N2CCN2CCOCC2)cc1OC", "note": "(stereo not drawn)", "activity change, negative = cytotoxic": "inactive: 12.4%"}
{"smiles": "COC(=O)C(N)Cc1ccc(O)cc1", "note": "(stereo not drawn)", "Potency": "inconclusive: 29.1 µM [cytotoxic, single point]"}
{"smiles": "Cc1ccccc1CNC(=O)C1CCCN(S(=O)(=O)N(C)c2ccc(F)cc2)C1", "note": "(stereo not drawn)", "Potency": "inconclusive: 29.1 µM [cytotoxic, single point]"}
{"smiles": "CCOC(=O)C1CCN(C(=O)COC(=O)Cc2ccc(Cl)cc2)CC1", "activity change, negative = cytotoxic": "inactive: 1.23%"}
{"smiles": "COCCCNC(=O)C[C@H]1C[C@H](C(=O)N2CCOCC2)[C@@]2(CCC3CCCC3)c3[nH]c4cc(-c5ccco5)ccc4c3CCN2C1=O", "activity change, negative = cytotoxic": "inactive: -14.4%"}
{"smiles": "C=CCC1NS(=O)(=O)OC(COC)C1C", "note": "(stereo not drawn)", "Potency": "inconclusive: 29.1 µM [cytotoxic, single point]"}
{"smiles": "O=C(NCCc1csc(-c2cccc(F)c2)n1)c1cccs1", "activity change, negative = cytotoxic": "inactive: -19.9%"}
{"smiles": "CCCOc1ccc(C(F)(F)F)cc1NC(=O)c1cc(C)on1", "activity change, negative = cytotoxic": "inactive: 8.56%"}
{"smiles": "N=c1ccn(Cc2ccc(Cl)cc2Cl)cc1", "Potency": "active: 6.51 µM"}
{"smiles": "CC(C)CC(N)c1csc(Nc2ccccn2)n1", "note": "(stereo not drawn)", "activity change, negative = cytotoxic": "inactive: -0.0571%"}
{"smiles": "CCC(=O)NC(c1cc(Cl)c2cccnc2c1O)C1CC1", "note": "(stereo not drawn)", "Potency": "inconclusive: 4.11 µM [cytotoxic, full curve]"}
{"smiles": "CCCCCCc1cc2cc(C(=O)Nc3ccccc3OC)c(=O)oc2cc1O", "Potency": "inconclusive: 6.51 µM [cytotoxic, partial curve, poor fit]"}
{"smiles": "CC(C)(C)c1cccc(OCCCSc2ncccn2)c1", "Potency": "inconclusive: 8.2 µM [cytotoxic, partial curve]"}
{"smiles": "O=C1NC(c2cccc(OCc3ccccc3)c2)Nc2ccccc21", "note": "(stereo not drawn)", "Potency": "active: 0.58 µM"}
{"smiles": "CCc1nc2c(cnn2-c2ccc(F)cc2)c(=O)n1-c1ccc(N2CCC(C)CC2)cc1", "activity change, negative = cytotoxic": "inactive: -15.2%"}
{"smiles": "COC(=O)c1[nH]c2c(c1C)C(=O)CC(c1ccc(C)cc1)C2", "note": "(stereo not drawn)", "Potency": "inconclusive: 20.6 µM [cytotoxic, partial curve, poor fit]"}
{"smiles": "Cc1csc(=Nc2c(C)n(C)n(-c3ccccc3)c2=O)n1Cc1ccccc1", "Potency": "inactive"}
{"smiles": "CCOc1ccc(-n2c(Cc3cc(=O)[nH]c(=O)[nH]3)nnc2SCC)cc1", "Potency": "inconclusive: 29.1 µM [rising, single point]"}
{"smiles": "CCOc1ccc(C(C(=O)NCC2CCCO2)N(C(=O)c2snc(C(N)=O)c2N)c2ccc3c(c2)OCCO3)cc1", "note": "(stereo not drawn)", "Potency": "inconclusive: 0.259 µM [rising, full curve, poor fit]"}
{"smiles": "CCOC(=O)c1ccc(NS(=O)(=O)c2ccc(Br)s2)cc1", "activity change, negative = cytotoxic": "inactive: -7.09%"}
{"smiles": "COc1ccccc1C(CNC(=O)c1cc(S(=O)(=O)N2CCOCC2)ccc1C)N1CCCC1", "note": "(stereo not drawn)", "activity change, negative = cytotoxic": "inactive: 20.4%"}
{"smiles": "CC(=O)Oc1ccc(C(=O)Nc2cc(NC(=O)c3ccc(OC(C)=O)cc3)cc(C(=O)NC(C)(C)C)c2)cc1", "Potency": "inconclusive: 29.1 µM [cytotoxic, single point]"}
{"smiles": "NC(=O)c1cc(C(N)=O)nc(Cl)n1", "Potency": "inconclusive: 0.0073 µM [rising, full curve]"}
{"smiles": "O=C(NCc1cccnc1)c1cccn1-c1ncc(C(F)(F)F)cc1Cl", "activity change, negative = cytotoxic": "inactive: -0.248%"}
{"smiles": "COc1ccc(N/N=C(/C(C)=O)N2CCCc3ccccc32)cc1", "Potency": "active: 20.6 µM"}
{"smiles": "O=C(NCCc1ccc(Cl)cc1)C1CCC(CNc2nc(=S)[nH]c3ccccc23)CC1", "note": "(stereo not drawn)", "Potency": "inconclusive: 18.4 µM [cytotoxic, single point]"}
{"smiles": "C=CCNCCCCOc1ccc(C)cc1[N+](=O)[O-]", "activity change, negative = cytotoxic": "inconclusive: 30.2%"}
{"smiles": "O=C(COc1ccccc1)N/N=C/c1ccc([N+](=O)[O-])o1", "Potency": "active: 14.6 µM"}
{"smiles": "CCOc1cc(NC(=O)C2CC2)c(OCC)cc1NC(=O)c1ccccc1OCC", "Potency": "inconclusive: 29.1 µM [cytotoxic, single point]"}
{"smiles": "COP(C)(=O)c1c(C)nn(-c2ccccc2)c1C", "note": "(stereo not drawn)", "activity change, negative = cytotoxic": "inactive: -3.93%"}
{"smiles": "CC(C)C(NC(=O)CN(c1ccc2c(c1)OCCO2)S(=O)(=O)c1ccccc1)C(C)C", "activity change, negative = cytotoxic": "inconclusive: 8.82%"}
{"smiles": "O=C(NCC1CCCO1)C1CCN(S(=O)(=O)c2cccc3cccnc23)CC1", "note": "(stereo not drawn)", "Potency": "inconclusive: 29.1 µM [rising, single point]"}
{"smiles": "Oc1ccc(CN2CCCc3ccccc32)c2cccnc12", "Potency": "active: 23.1 µM"}
{"smiles": "O=C(/C=C/c1ccccc1)NC(NC(=S)Nc1ccc(Cl)cc1)C(Cl)(Cl)Cl", "note": "(stereo not drawn)", "Potency": "inconclusive: 29.1 µM [cytotoxic, single point]"}
{"smiles": "Cc1cccc(OCCCCCn2ccnc2)c1C", "Potency": "inconclusive: 20.6 µM [cytotoxic, partial curve, poor fit]"}
{"smiles": "CC(=O)c1sc(C(C)(C)C)cc1NC(=O)/C=C/C(=O)O", "Potency": "inconclusive: 32.6 µM [cytotoxic, single point]"}
{"smiles": "O=C(Nc1ncccc1O)c1ccc2c(c1)OCCO2", "Potency": "active: 4.11 µM"}
{"smiles": "CN(Cc1ccccc1)C(=O)c1ccc(NC(=O)C2CCCN(C(=O)OC(C)(C)C)C2)cc1", "note": "(stereo not drawn)", "Potency": "inconclusive: 18.4 µM [cytotoxic, single point]"}
{"smiles": "Cn1nc(-c2ccc(Cl)cc2)c2cc(C(=O)NC3CC3)sc21", "activity change, negative = cytotoxic": "inactive: -12.8%"}
{"smiles": "Nc1ccccc1SC(C[N+](=O)[O-])c1ccccc1", "note": "(stereo not drawn)", "Potency": "inconclusive: 18.4 µM [cytotoxic, single point]"}
{"smiles": "Cc1cc(C)n2c(NC3CCCCC3)c(-c3ccccn3)nc2n1", "Potency": "inconclusive: 29.1 µM [cytotoxic, single point]"}
{"smiles": "c1ccc2[nH]c(CSc3ncnc4c3oc3ccccc34)nc2c1", "Potency": "inconclusive: 20.6 µM [cytotoxic, single point]"}
{"smiles": "CCOc1ccccc1N(CC(=O)N1CCN(Cc2ccccc2)CC1)S(=O)(=O)c1ccccc1", "Potency": "inconclusive: 32.6 µM [cytotoxic, single point]"}
